Data published in patent publication US12595239B2, “Substituted isoxazoline derivatives” (BASF SE, priority 2021, dated 2026).
Some results were stated once for a whole list of compounds, not compound by compound. At least one structure is not confirmed: it was looked up by name or label, or the drawing left a doubt.

Columns and labels:
Type in all cases: in vivo
Plutella xylostella = experiment: B.6 Diamond Back Moth, cabbage leaf disc dip test; conditions: 300 ppm; 3rd instar larvae, 72 hours after treatment
Protocol: The active compound was dissolved at the desired concentration in a mixture of 1:1 (vol:vol) distilled water:acetone. Surfactant (Kinetic) was added at a rate of 0.01% (vol/vol). The test solution was prepared at the day of use. Cabbage leaf discs (60 mm in diameter) were dipped in test solution and air-dried. Treated leaves were placed in petri dishes lined with moistened filter paper and inoculated with ten 3rd instar larvae. Mortality was recorded 72 hours after treatment. Feeding damages were also recorded using a scale of 0-100%.

Heliothis virescens = experiment: B.4 Tobacco Budworm, microtiter plate diet test; conditions: 2500 ppm; egg and larval mortality, 5 days
How it was run: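 Compounds in 25% DMSO/75% water sprayed at various concentrations onto diet in microtiter wells each holding 15-25 H. virescens eggs, two replicates. Plates kept 5 days at about 28±1 °C and 80±5% relative humidity; egg and larval mortality then scored visually.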

Dichromothrips corbetti = experiment: B.7 Orchid Thrips, floral-immersion test; conditions: 300 ppm; adult thrips, 72 hours after treatment
Protocol: Dichromothrips corbetti adults used for bioassay were obtained from a colony maintained continuously under laboratory conditions. For testing purposes, the test compound was diluted in a 1:1 mixture of acetone:water (vol:vol), plus Kinetic at a rate of 0.01% v/v.
Thrips potency of each compound was evaluated by using a floral-immersion technique. Each orchid petal was dipped into treatment solution and allowed to dry in Petri dishes. Treated petals were placed into individual re-sealable plastic along with about 20 adult thrips. All test arenas were held under dark condition and a temperature of about 28° C. for duration of the assay. The percent mortality was recorded 72 hours after treatment.

Myzus persicae = experiment: B.3 Green Peach Aphid (mixed life stages), systemic artificial diet test; conditions: 2500 ppm; treated aphid diet, 3 days
How it was run: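 Compounds, formulated in 25% DMSO/75% water, were mixed at several concentrations into liquid artificial diet under a membrane, two replicates. 5–8 adult aphids fed on treated diet for 3 days at about 23±1 °C, 50±5% RH. Mortality and fecundity were scored visually.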

Anthonomus grandis = experiment: B.1 Boll weevil (Anthonomus grandis), 96-well microtiter plate diet test; conditions: 2500 ppm; egg and larval mortality, 5 days
Aedes aegypti = conditions: 2500 ppm; larval mortality, 2 days
Spodoptera eridania = experiment: B.11 Southern Armyworm 2nd instar larvae, lima bean foliar spray test; conditions: 300 ppm, 4 days after treatment
Protocol: The active compounds were formulated by a Tecan liquid handler in 100% cyclohexanone as a 10′000 ppm solution supplied in tubes. The 10′000 ppm solution was serially diluted in 100% cyclohexanone to make interim solutions. These served as stock solutions for which final dilutions were made by the Tecan in 50% acetone:50% water (v/v) into 10 or 20 ml glass vials. A nonionic surfactant (Kinetic®) was included in the solution at a volume of 0.01% (v/v). The vials were then inserted into an automated electrostatic sprayer equipped with an atomizing nozzle for application to plants/insects. Lima bean plants (variety Sieva) were grown 2 plants to a pot and selected for treatment at the 1st true leaf stage. Test solutions were sprayed onto the foliage by an automated electrostatic plant sprayer equipped with an atomizing spray nozzle. The plants were dried in the sprayer fume hood and then removed from the sprayer. Each pot was placed into perforated plastic bags with a zip closure. Ten to 11 armyworm larvae were placed into the bag and the bags zipped closed. Test plants were maintained in a growth room at about 25° C. and about 20-40% relative humidity for 4 days, avoiding direct exposure to fluorescent light (14:10 light:dark photo-period) to prevent trapping of heat inside the bags. Mortality and reduced feeding were assessed 4 days after treatment, compared to untreated control plants.

Measured: mortality in comparison with untreated controls

O=C(CC(F)(F)F)Nc1c(F)ccc(NC(=O)c2cc(NC3=NOC(c4cc(Cl)cc(Cl)c4)(C(F)(F)F)C3)ccc2Cl)c1F (stereo not shown) [I-13]
not listed: Spodoptera eridania
at least 75%: all other assays above

O=C(CNC(=O)c1cc(NC2=NOC(c3cc(Cl)cc(Cl)c3)(C(F)(F)F)C2)ccc1Cl)NCCC(F)(F)F (stereo not shown) [I-19]
not listed: Spodoptera eridania
at least 75%: all other assays above

O=C(NCC(F)(F)F)c1cc(NC2=NOC(c3cc(Cl)cc(Cl)c3)(C(F)(F)F)C2)ccc1Cl (stereo not shown) [I-11]
not listed: Spodoptera eridania
at least 75%: all other assays above

O=C(NC1(c2ncon2)CC1)c1cc(NC2=NOC(c3ccc(F)c(Cl)c3)(C(F)(F)F)C2)ccc1Cl (stereo not shown) [I-122]
not listed: Spodoptera eridania
at least 75%: all other assays above

CN(C1=NOC(c2cc(Cl)cc(Cl)c2)(C(F)(F)F)C1)c1ccc(Cl)c(C(=O)Nc2ccncc2F)c1 (stereo not shown) [I-142]
not listed: Spodoptera eridania
at least 75%: all other assays above

CN(C1=NOC(c2cc(Cl)cc(Cl)c2)(C(F)(F)F)C1)c1ccc(Cl)c(C(=O)NC2(c3cccnc3)CC2)c1 (stereo not shown) [I-121]
not listed: Spodoptera eridania
at least 75%: all other assays above

CC(=O)Nc1nc(NC(=O)c2cc(NC3=NOC(c4cc(Cl)c(F)c(Cl)c4)(C(F)(F)F)C3)ccc2Cl)c(F)cc1F (stereo not shown) [I-176]
at least 75%: Spodoptera eridania

O=C(NCc1ccccn1)c1cc(NC2=NOC(c3cc(Cl)cc(Cl)c3)(C(F)(F)F)C2)ccc1Cl (stereo not shown) [I-10]
not listed: Spodoptera eridania
at least 75%: all other assays above

N#CC1(NC(=O)c2cc(NC3=NOC(c4cc(Br)cc(C(F)(F)F)c4)(C(F)(F)F)C3)ccc2Cl)CC1 (stereo not shown) [I-133]
not listed: Spodoptera eridania
at least 75%: all other assays above

N#CC(NC(=O)c1cc(NC2=NOC(c3ccc(F)c(Cl)c3)(C(F)(F)F)C2)ccc1Cl)c1ccccc1 (stereo not shown) [I-112]
not listed: Aedes aegypti | Spodoptera eridania
at least 75%: all other assays above

O=C(NC1CCC(=O)N(CC(F)F)C1=O)c1cc(NC2=NOC(c3cc(Cl)cc(Cl)c3)(C(F)(F)F)C2)ccc1Cl (stereo not shown) [I-8]
not listed: Aedes aegypti | Spodoptera eridania
at least 75%: all other assays above

CN(C1=NOC(c2cc(Cl)cc(Cl)c2)(C(F)(F)F)C1)c1ccc(Cl)c(C(=O)Nc2ccc(F)c(C#N)c2)c1 (stereo not shown) [I-123]
not listed: Spodoptera eridania
at least 75%: all other assays above

O=C(CC1CC1)Nc1c(F)ccc(NC(=O)c2cc(NC3=NOC(c4cc(Cl)cc(Cl)c4)(C(F)(F)F)C3)ccc2Cl)c1F (stereo not shown) [I-14]
not listed: Spodoptera eridania
at least 75%: all other assays above

CN(NC(=O)c1cc(NC2=NOC(c3cc(Cl)c(F)c(Cl)c3)(C(F)(F)F)C2)ccc1Cl)c1ncccn1 (stereo not shown) [I-57]
at least 75%: Heliothis virescens | Spodoptera eridania | Anthonomus grandis | Aedes aegypti

CN(C1=NOC(c2cc(Cl)cc(Cl)c2)(C(F)(F)F)C1)c1ccc(Cl)c(C(=O)NC2(c3nn[nH]n3)CC2)c1 (stereo not shown) [I-129]
at least 75%: Plutella xylostella | Spodoptera eridania

N#CC1(NC(=O)c2cc(NC3=NOC(c4cc(Cl)cc(Cl)c4)(C(F)(F)F)C3)ccc2Cl)CC1 (stereo not shown) [I-139]
at least 75%: Plutella xylostella | Heliothis virescens | Spodoptera eridania | Anthonomus grandis

CC(=O)Nc1c(F)ccc(NC(=O)c2cc(NC3=NOC(c4cc(Cl)cc(Cl)c4)(C(F)(F)F)C3)ccc2Cl)c1F (stereo not shown) [I-5]
not listed: Spodoptera eridania
at least 75%: all other assays above

N#Cc1c(NC2=NOC(c3cc(Cl)cc(Cl)c3)(C(F)(F)F)C2)cccc1C(=O)Nc1ccc(F)cc1F (stereo not shown) [I-82]
at least 75%: Plutella xylostella | Spodoptera eridania

O=C(Nc1ccc(F)cc1F)c1cccc(NC2=NOC(c3cc(Cl)cc(Cl)c3)(C(F)(F)F)C2)c1Cl (stereo not shown) [I-18]
not listed: Myzus persicae | Spodoptera eridania
at least 75%: all other assays above
